# In PMC11186203:
# No constants are given. Whether binding was seen depends on the method and setting. Binding seen in cells or lysates may run through a third protein. Some binding calls cover weakened binding; strength is not graded here.
# T1: Rac GTPase-activating protein 1 (RACGAP1), endogenous in prostate cancer cells (human (endogenous in 22RV1, C4-2B-ENZR, C4-2B)) (UniProt Q9H0H5)
# T1 sequence: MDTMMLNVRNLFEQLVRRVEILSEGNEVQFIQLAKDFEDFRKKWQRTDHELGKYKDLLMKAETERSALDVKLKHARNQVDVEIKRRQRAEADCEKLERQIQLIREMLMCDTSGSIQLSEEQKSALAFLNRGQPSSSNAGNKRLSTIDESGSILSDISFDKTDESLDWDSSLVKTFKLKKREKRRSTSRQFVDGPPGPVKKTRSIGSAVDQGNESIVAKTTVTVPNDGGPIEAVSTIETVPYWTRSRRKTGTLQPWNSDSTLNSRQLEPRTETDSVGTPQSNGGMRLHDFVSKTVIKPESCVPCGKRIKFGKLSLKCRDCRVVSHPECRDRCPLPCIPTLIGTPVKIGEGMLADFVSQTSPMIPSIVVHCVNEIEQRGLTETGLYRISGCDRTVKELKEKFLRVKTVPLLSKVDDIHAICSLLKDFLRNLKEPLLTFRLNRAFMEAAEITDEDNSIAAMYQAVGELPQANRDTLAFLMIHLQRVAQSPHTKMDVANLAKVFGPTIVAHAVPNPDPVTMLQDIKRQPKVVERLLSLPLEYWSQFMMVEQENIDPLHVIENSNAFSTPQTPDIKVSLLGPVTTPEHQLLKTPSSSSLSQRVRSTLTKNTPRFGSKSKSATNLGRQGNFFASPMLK
# How the values were obtained:
# [1] = target: T1, Rac GTPase-activating protein 1 (RACGAP1), endogenous in prostate cancer cells (human (endogenous in 22RV1, C4-2B-ENZR, C4-2B)); test: co-IP; endogenous proteins; lysates of 22RV1 and C4-2B-ENZR cells (Fig. 2D) and of C4-2B-Parental and C4-2B-ENZR cells (Fig. 2J) immunoprecipitated with anti-AR, anti-AR-V7 or anti-RACGAP1 antibodies, IgG as negative control, then western blotting
# [2] = target: androgen receptor splice variant 7 (AR-V7), endogenous in prostate cancer cells (human (endogenous in 22RV1, C4-2B-ENZR)) (UniProt P10275); test: as above
binding [1],binding [2],Molecule
binds,,"androgen receptor splice variant 7 (AR-V7), endogenous in prostate cancer cells (from UniProt P10275-3 1-644)"
,binds,"Rac GTPase-activating protein 1 (RACGAP1), endogenous in prostate cancer cells (protein, UniProt Q9H0H5 1-632) MDTMMLNVRNLFEQLVRRVEILSEGNEVQFIQLAKDFEDFRKKWQRTDHELGKYKDLLMKAETERSALDVKLKHARNQVDVEIKRRQRAEADCEKLERQIQLIREMLMCDTSGSIQLSEEQKSALAFLNRGQPSSSNAGNKRLSTIDESGSILSDISFDKTDESLDWDSSLVKTFKLKKREKRRSTSRQFVDGPPGPVKKTRSIGSAVDQGNESIVAKTTVTVPNDGGPIEAVSTIETVPYWTRSRRKTGTLQPWNSDSTLNSRQLEPRTETDSVGTPQSNGGMRLHDFVSKTVIKPESCVPCGKRIKFGKLSLKCRDCRVVSHPECRDRCPLPCIPTLIGTPVKIGEGMLADFVSQTSPMIPSIVVHCVNEIEQRGLTETGLYRISGCDRTVKELKEKFLRVKTVPLLSKVDDIHAICSLLKDFLRNLKEPLLTFRLNRAFMEAAEITDEDNSIAAMYQAVGELPQANRDTLAFLMIHLQRVAQSPHTKMDVANLAKVFGPTIVAHAVPNPDPVTMLQDIKRQPKVVERLLSLPLEYWSQFMMVEQENIDPLHVIENSNAFSTPQTPDIKVSLLGPVTTPEHQLLKTPSSSSLSQRVRSTLTKNTPRFGSKSKSATNLGRQGNFFASPMLK"
